Results deposited as PubChem BioAssay AID1117269 (University of Michigan, 2014)
In all, the deposit lists 714 reagents; below is a random part of them. Of all reagents, 49 (6.9%) were called active. 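Active means a hit in at least one line; per-line hit columns show which; some siRNA pools appear more than once.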 Not stated in the record: the amount of reagent.

Test: 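Kinome-wide knockdown screen for regulators of TGF-beta reporter output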 (primary screen)
Cells: human A549 lung cancer and 1833 breast cancer (MDA-MB-231-derived) cell lines carrying a stable BTR luciferase reporter
Reagents: siRNA pool against human genes
Duration: 72 h after transfection, then 1 h TGF-beta before the read
Conditions: TGF-beta 10 ng/mL added one hour before luciferin and read-out
Measurement: 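BTR reporter bioluminescence as fold change relative to non-targeting siRNA, averaging triplicates per line; knockdown for 72 h, then TGF-beta at 10 ng/mL 1 h prior to reading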
Direction: fold over scrambled siRNA, A549 and fold over scrambled siRNA, 1833: higher = more reporter light, weaker TGF-beta receptor signalling
Rule for the call: 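Hit in either line counts as active; per-line hits lie above an upper limit from quartiles of averaged log fold values, in plate and screen-wide analyses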
Calls: active = hit in at least one line; inactive = hit in neither line

gene knocked down	fold over scrambled siRNA, A549	fold over scrambled siRNA, 1833	hit in A549	hit in 1833	outcome
CKB	3.57	6.66	not a hit in A549	not a hit in 1833	inactive
CAMK2D	3.71	7.12	not a hit in A549	not a hit in 1833	inactive
DYRK4	3.53	3.73	not a hit in A549	not a hit in 1833	inactive
BRSK2	2.07	3.84	not a hit in A549	not a hit in 1833	inactive
CDK14	1.6	6.47	not a hit in A549	not a hit in 1833	inactive
AKT1	1.43	2.33	not a hit in A549	not a hit in 1833	inactive
PRKCQ	1.21	2.72	not a hit in A549	not a hit in 1833	inactive
RIOK3	2.67	5.19	not a hit in A549	not a hit in 1833	inactive
STK39	2.99	3.93	not a hit in A549	not a hit in 1833	inactive
MAPK8	1.56	1.87	not a hit in A549	not a hit in 1833	inactive
SRC	4.33	1.93	not a hit in A549	not a hit in 1833	inactive
PIK3CD	6.64	1.85	hit in A549	not a hit in 1833	active
ZAP70	1.09	8.87	not a hit in A549	not a hit in 1833	inactive
PIK3C3	4.2	1.67	not a hit in A549	not a hit in 1833	inactive
SPEG	2.57	3.27	not a hit in A549	not a hit in 1833	inactive
DGKK	4.85	1.9	not a hit in A549	not a hit in 1833	inactive
DDR2	1.69	7.07	not a hit in A549	not a hit in 1833	inactive
FGFR2	2.33	4.47	not a hit in A549	not a hit in 1833	inactive
MAPK9	5.9	5.67	hit in A549	not a hit in 1833	active
COMMD3	3.1	2.31	not a hit in A549	not a hit in 1833	inactive
PRKCZ	0.86	4	not a hit in A549	not a hit in 1833	inactive
CAMK1G	2.69	2.38	not a hit in A549	not a hit in 1833	inactive

Look-ups from the list:
Entry of ZAP70 under “hit in 1833”: not a hit in 1833
For “fold over scrambled siRNA, A549”, DDR2 has 1.69
FGFR2, fold over scrambled siRNA, A549 = 2.33
For “hit in 1833”, SPEG shows not a hit in 1833
PRKCZ, outcome → inactive
Under “hit in A549”, RIOK3 is entered as not a hit in A549

Additional records follow:
gene knocked down	fold over scrambled siRNA, A549	fold over scrambled siRNA, 1833	hit in A549	hit in 1833	outcome
BMPR1B	3.48	6.01	not a hit in A549	not a hit in 1833	inactive
MAP2K3	0.723	3.27	not a hit in A549	not a hit in 1833	inactive
EPHA6	0.458	0.556	not a hit in A549	not a hit in 1833	inactive
RPS6KA5	2.33	5.5	not a hit in A549	not a hit in 1833	inactive
MAP3K10	3.86	5.85	not a hit in A549	not a hit in 1833	inactive
PRKAR1B	1.63	7.76	not a hit in A549	not a hit in 1833	inactive
LRRK2	2.14	3.66	not a hit in A549	not a hit in 1833	inactive
ADPGK	1.79	1.13	not a hit in A549	not a hit in 1833	inactive
BUB1	8.93	13.2	hit in A549	hit in 1833	active
CRIM1	3.24	3.6	not a hit in A549	not a hit in 1833	inactive
NRBP2	6.03	3.31	hit in A549	not a hit in 1833	active
GUCY2F	2.05	2.14	not a hit in A549	not a hit in 1833	inactive
MOK	3.49	14.6	not a hit in A549	hit in 1833	
EFNA4	1.02	0.619	not a hit in A549	not a hit in 1833	inactive
MAP3K5	2.57	2.33	not a hit in A549	not a hit in 1833	inactive
CDK10	1.03	9.83	not a hit in A549	not a hit in 1833	inactive
CAMK2A	1.1	5.05	not a hit in A549	not a hit in 1833	inactive
ATR	0.714	1.2	not a hit in A549	not a hit in 1833	inactive
CDC42BPA	2.19	1.33	not a hit in A549	not a hit in 1833	inactive
BCKDK	1.6	3.67	not a hit in A549	not a hit in 1833	inactive
STK17B	3.2	3.67	not a hit in A549	not a hit in 1833	inactive
NPR2	5.06	3.4	not a hit in A549	not a hit in 1833	inactive
FXN	2.49	31.3	not a hit in A549	hit in 1833	
RET	0.476	1.05	not a hit in A549	not a hit in 1833	inactive
AURKC	0.952	1.4	not a hit in A549	not a hit in 1833	inactive
AK7	3.38	5.27	not a hit in A549	not a hit in 1833	inactive
CKMT1B	1.13	1.4	not a hit in A549	not a hit in 1833	inactive
ERBB3	3.38	13.3	not a hit in A549	hit in 1833	
SIK1	4.41	2.33	not a hit in A549	not a hit in 1833	inactive
LMTK3	4.41	0.778	not a hit in A549	not a hit in 1833	inactive
CDK17	2.48	6.56	not a hit in A549	not a hit in 1833	inactive
PANK4	1.33	2.24	not a hit in A549	not a hit in 1833	inactive
SRPK3	2.29	4.93	not a hit in A549	not a hit in 1833	inactive
TESK1	2.05	3.22	not a hit in A549	not a hit in 1833	inactive
MOS	1.52	1.76	not a hit in A549	not a hit in 1833	inactive
